According to the supplement of paper PMC6411743:
± gives the standard deviation of the averaged measurements. Only a part is listed here, and it is no random draw. Small differences around the control level are noise.

By UniProt entry, the sequences of proteins in these tests, tags left out. Where a name states a change or a piece, a line headed by the entry shows the natural chain unless it says otherwise.
UniProt P10412, whole entry: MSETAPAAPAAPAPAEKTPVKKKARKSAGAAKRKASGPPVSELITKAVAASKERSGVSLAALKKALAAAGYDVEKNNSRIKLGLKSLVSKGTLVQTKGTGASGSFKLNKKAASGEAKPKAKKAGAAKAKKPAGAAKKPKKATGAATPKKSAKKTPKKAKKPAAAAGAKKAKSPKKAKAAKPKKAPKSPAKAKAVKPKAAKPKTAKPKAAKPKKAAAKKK
UniProt P13498: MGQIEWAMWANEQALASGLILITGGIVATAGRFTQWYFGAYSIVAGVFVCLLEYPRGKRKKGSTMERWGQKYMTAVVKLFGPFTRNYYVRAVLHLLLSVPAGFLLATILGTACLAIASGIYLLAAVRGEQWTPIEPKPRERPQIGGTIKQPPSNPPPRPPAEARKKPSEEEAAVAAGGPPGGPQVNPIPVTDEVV
UniProt O95926: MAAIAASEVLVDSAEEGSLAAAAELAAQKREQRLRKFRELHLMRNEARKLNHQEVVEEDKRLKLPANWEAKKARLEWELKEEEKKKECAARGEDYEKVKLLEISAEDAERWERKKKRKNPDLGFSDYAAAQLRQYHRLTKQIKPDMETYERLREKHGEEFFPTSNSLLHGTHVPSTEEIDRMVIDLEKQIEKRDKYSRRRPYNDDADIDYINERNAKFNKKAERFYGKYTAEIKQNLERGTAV
UniProt P02792: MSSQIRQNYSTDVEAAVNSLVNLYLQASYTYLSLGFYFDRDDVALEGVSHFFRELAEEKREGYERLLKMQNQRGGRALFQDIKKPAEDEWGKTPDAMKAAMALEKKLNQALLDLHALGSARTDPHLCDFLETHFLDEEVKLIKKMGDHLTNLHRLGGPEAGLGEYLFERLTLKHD
UniProt O95777: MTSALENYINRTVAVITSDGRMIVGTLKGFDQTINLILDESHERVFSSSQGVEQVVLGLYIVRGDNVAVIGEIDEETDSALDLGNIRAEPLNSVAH
UniProt P15260: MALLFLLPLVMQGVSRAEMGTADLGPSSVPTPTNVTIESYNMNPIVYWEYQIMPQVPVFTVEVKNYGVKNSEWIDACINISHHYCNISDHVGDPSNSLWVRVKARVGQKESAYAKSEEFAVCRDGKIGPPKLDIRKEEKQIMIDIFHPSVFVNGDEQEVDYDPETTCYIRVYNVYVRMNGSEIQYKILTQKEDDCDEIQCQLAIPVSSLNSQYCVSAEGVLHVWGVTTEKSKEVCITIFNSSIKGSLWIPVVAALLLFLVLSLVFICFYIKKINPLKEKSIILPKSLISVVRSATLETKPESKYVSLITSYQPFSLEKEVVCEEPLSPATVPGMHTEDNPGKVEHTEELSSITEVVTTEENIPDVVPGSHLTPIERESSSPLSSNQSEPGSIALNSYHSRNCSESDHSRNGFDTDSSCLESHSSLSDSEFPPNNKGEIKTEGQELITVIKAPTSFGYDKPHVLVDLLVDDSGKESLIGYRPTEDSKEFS
UniProt P12081: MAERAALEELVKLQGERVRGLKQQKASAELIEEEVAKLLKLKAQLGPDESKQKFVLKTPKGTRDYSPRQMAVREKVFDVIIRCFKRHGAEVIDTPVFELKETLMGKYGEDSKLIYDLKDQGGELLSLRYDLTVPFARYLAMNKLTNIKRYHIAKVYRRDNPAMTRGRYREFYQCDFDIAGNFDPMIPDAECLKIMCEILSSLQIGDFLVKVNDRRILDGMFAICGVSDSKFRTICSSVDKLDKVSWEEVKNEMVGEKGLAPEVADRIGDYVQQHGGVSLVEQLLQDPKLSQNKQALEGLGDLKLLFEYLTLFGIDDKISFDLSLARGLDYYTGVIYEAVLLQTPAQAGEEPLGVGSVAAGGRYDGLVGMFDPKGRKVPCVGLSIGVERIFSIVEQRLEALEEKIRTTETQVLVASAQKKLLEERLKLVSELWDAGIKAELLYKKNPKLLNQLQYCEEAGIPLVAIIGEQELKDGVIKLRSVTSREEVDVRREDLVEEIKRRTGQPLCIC
UniProt P06576, whole entry: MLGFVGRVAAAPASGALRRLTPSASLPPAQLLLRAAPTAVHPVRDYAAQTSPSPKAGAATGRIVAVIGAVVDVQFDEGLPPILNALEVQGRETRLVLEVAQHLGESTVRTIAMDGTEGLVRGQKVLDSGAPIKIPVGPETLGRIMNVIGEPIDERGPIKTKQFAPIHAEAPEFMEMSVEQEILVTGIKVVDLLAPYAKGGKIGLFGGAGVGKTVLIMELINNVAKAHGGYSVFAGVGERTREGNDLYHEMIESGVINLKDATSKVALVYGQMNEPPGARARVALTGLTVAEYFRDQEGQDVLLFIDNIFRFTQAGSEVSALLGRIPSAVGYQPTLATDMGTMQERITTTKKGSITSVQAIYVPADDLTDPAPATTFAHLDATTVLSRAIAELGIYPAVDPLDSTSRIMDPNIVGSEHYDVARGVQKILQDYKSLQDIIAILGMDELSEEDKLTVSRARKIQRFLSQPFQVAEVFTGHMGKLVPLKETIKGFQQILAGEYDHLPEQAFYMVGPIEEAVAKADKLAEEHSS
UniProt P13861, whole entry: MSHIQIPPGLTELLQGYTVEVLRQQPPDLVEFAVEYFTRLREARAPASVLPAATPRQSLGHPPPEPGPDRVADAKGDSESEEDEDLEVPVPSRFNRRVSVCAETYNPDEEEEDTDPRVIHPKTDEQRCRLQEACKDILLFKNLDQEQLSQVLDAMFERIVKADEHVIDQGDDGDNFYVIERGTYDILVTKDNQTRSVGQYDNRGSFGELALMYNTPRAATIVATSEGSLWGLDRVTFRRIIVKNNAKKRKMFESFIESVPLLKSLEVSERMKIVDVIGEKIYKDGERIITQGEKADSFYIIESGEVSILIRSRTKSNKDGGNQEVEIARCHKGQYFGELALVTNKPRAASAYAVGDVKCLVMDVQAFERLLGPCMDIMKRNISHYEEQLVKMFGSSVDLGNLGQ
UniProt P0CAP2, whole entry, looked up: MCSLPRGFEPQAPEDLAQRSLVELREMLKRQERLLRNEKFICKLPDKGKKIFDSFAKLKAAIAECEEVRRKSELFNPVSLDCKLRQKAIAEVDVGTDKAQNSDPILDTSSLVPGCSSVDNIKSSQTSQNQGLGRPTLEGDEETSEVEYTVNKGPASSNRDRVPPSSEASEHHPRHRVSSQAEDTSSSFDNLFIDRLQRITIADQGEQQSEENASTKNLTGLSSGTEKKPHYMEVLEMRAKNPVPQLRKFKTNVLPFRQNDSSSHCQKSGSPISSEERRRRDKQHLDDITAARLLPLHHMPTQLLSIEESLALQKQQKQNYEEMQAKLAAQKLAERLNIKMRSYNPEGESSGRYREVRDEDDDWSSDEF
UniProt Q6EEV4: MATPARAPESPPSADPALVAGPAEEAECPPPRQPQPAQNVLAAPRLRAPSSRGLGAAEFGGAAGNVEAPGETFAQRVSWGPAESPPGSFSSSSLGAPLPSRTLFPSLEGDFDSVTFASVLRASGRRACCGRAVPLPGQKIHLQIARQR
UniProt O96011: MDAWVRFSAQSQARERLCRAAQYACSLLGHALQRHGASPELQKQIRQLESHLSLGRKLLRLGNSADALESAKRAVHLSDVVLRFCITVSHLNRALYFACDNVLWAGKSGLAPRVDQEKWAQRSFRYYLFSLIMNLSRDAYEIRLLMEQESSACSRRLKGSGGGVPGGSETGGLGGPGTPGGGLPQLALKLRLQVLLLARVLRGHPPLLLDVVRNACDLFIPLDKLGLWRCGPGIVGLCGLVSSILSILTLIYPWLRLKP
UniProt P09132: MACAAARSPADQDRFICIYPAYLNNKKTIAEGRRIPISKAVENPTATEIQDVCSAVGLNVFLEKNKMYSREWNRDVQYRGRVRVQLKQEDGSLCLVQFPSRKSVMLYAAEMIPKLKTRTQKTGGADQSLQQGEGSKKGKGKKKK
UniProt P15812: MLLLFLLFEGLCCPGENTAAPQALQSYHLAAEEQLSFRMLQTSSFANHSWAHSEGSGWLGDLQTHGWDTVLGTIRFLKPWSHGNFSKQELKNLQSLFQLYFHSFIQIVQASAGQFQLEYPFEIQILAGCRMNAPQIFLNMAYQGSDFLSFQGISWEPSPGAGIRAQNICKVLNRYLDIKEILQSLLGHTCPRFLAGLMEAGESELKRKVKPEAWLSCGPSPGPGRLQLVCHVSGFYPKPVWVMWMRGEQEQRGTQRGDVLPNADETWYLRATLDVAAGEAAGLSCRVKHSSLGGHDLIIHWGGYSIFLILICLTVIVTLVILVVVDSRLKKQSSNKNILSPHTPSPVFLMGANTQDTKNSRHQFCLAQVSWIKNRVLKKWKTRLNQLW
UniProt P09693, whole entry: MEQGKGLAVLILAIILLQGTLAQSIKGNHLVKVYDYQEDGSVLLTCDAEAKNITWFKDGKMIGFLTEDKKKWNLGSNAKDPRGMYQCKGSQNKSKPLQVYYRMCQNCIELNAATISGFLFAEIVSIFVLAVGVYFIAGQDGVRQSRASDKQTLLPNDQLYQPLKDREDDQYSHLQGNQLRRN
UniProt P13984, whole entry: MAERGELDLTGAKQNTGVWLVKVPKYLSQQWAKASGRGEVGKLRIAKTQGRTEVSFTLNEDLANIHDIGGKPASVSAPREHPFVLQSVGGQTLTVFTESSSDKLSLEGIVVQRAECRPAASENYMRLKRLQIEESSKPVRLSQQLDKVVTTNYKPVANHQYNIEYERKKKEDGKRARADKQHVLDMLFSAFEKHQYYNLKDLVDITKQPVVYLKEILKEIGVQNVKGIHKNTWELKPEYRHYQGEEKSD
UniProt O95793: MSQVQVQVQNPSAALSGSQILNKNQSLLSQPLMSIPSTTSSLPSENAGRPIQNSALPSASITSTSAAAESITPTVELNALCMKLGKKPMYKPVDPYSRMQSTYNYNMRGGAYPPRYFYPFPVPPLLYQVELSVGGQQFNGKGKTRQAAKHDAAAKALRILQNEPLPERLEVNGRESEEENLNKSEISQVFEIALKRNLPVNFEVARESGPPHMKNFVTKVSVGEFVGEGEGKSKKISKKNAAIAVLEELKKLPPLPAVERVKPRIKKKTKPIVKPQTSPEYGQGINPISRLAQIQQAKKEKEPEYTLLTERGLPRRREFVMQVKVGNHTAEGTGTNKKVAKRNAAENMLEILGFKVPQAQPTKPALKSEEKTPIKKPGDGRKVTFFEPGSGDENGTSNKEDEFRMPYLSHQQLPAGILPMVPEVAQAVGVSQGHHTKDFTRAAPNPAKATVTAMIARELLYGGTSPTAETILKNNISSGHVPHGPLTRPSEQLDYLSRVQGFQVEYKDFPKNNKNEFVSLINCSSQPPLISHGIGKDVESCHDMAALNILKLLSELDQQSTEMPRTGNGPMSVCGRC
UniProt P05387, whole entry: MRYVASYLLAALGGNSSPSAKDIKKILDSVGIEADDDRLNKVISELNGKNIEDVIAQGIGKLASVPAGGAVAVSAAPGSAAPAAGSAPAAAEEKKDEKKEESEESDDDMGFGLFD
UniProt O95989: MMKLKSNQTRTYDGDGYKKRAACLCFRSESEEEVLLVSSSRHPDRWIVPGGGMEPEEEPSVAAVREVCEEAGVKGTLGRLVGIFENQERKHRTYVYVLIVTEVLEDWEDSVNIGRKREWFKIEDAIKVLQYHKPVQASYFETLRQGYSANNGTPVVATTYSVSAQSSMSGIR
UniProt P00505: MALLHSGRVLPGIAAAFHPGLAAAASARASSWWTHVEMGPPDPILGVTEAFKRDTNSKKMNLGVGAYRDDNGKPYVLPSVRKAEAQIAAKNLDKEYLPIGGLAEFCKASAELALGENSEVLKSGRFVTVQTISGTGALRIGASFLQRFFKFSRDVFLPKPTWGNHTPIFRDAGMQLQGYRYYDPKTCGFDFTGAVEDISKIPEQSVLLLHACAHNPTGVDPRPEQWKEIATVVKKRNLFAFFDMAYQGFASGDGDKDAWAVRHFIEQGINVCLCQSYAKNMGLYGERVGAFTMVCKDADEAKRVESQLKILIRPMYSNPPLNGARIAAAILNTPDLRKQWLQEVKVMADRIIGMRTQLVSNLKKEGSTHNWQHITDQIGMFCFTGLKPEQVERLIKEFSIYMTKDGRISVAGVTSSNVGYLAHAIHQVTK
UniProt P10768: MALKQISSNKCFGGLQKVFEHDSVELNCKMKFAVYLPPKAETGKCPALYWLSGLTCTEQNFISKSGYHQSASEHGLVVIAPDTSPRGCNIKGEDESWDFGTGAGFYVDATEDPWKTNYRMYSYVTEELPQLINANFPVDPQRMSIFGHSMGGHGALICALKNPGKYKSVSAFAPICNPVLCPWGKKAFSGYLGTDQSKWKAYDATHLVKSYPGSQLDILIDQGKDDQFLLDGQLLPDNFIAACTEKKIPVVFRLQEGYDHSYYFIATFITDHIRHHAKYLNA
UniProt O95801: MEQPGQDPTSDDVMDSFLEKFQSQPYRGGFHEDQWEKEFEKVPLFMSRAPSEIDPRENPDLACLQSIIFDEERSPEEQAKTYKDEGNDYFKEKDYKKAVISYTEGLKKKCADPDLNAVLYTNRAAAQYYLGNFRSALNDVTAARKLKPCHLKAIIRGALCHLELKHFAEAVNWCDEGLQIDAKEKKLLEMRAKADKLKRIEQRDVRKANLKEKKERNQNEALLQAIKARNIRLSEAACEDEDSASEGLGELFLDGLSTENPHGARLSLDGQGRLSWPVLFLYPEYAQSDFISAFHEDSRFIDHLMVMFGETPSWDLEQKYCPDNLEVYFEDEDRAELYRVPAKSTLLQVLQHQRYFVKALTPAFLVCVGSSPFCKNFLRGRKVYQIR

Compound: Nc1ncnc2c1ncn2[C@@H]1O[C@H](COP(=O)(O)OP(=O)(O)NP(=O)(O)O)[C@@H](O)[C@H]1O [adenylyl imidodiphosphate]
Assay: NP40-soluble protein abundance relative to vehicle (solubility fold change) (ratio); higher = more soluble protein in presence of AMP-PNP
Details: concentration: 0.1mM
Outline: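 Data come from three independent experiments in which Dounce-homogenised Jurkat crude lysate was treated at eight concentrations from 0.1 to 10 mM. Treatment ran 10 min at room temperature and then 3 min at 37 °C, after which 0.8% NP40 and benzonase were added for 60 min at 4 °C before ultracentrifugation. The supernatant underwent TMT labelling and LC-MS/MS, and vsn-normalised intensities were expressed as fold change against the detergent-processed vehicle in each replicate.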

Target	NP40-soluble protein abundance
IMPDH2 (UniProt P12268)	1.04 ± 0.046
HIST1H1E (UniProt P10412)	1.02 ± 0.071
CENPB (UniProt P07199)	0.972 ± 0.018
UniProt P00167 and related entries	0.951 ± 0.018
UniProt O95749 and related entries	1.02 ± 0.053
UniProt P06127	1 ± 0.032
CYBA (UniProt P13498)	1.01 ± 0.04
UniProt P00519 and related entries	1.02 ± 0.015
UniProt P04049 and related entries	1.02 ± 0.046
SYF2 (UniProt O95926)	0.9807 ± 0.002
FTL (UniProt P02792)	1.02 ± 0.029
UniProt O95777 and related entries	1.01 ± 0.028
IFNGR1 (UniProt P15260)	1 ± 0.042
EPHX1 (UniProt P07099)	0.958 ± 0.052
HARS (UniProt P12081)	0.982 ± 0.012
UniProt P06576 and related entries	1.02 ± 0.026
UniProt P13861 and related entries	0.9836 ± 0.007
P0CAP2 and related entries (UniProt Q6EEV4+P0CAP2)	0.9688 ± 0.0027
UniProt O96011 and related entries	1.02 ± 0.072

Target	NP40-soluble protein abundance
SRP19 (UniProt P09132)	0.965 ± 0.061
UniProt O96028 and related entries	1.03 ± 0.025
UniProt O95985 and related entries	1.01 ± 0.024
UniProt P15812 and related entries	1 ± 0.024
UniProt P09693	0.938 ± 0.074
GTF2F2 (UniProt P13984)	0.984 ± 0.013
UniProt O95793 and related entries	1.01 ± 0.017
UniProt P07992 and related entries	1.01 ± 0.09
UniProt O95983 and related entries	1.01 ± 0.022
RPLP2 (UniProt P05387)	0.967 ± 0.03
NUDT3 (UniProt O95989)	1 ± 0.086
GOT2 (UniProt P00505)	1.01 ± 0.011
ESD (UniProt P10768)	0.961 ± 0.029
UniProt P11274 and related entries	1.03 ± 0.03
UniProt P09497-2	1 ± 0.038
CST3 (UniProt P01034)	1 ± 0.013
TOP1 (UniProt P11387)	0.986 ± 0.014
NCK1 (UniProt P16333)	0.996 ± 0.033
TTC4 (UniProt O95801)	1 ± 0.018

Same assay, conditions: concentration: 0.5mM

Target	NP40-soluble protein abundance
IMPDH2 (UniProt P12268)	0.993 ± 0.059
HIST1H1E (UniProt P10412)	1.06 ± 0.12
CENPB (UniProt P07199)	1 ± 0.022
UniProt P00167 and related entries	0.996 ± 0.025
UniProt O95749 and related entries	1.01 ± 0.065
UniProt P06127	0.994 ± 0.052
CYBA (UniProt P13498)	1.06 ± 0.094
UniProt P00519 and related entries	1.03 ± 0.031
UniProt P04049 and related entries	0.994 ± 0.0057
SYF2 (UniProt O95926)	0.9987 ± 0.0059
FTL (UniProt P02792)	1.01 ± 0.02
UniProt O95777 and related entries	0.959 ± 0.095
IFNGR1 (UniProt P15260)	1 ± 0.054
EPHX1 (UniProt P07099)	0.996 ± 0.068
HARS (UniProt P12081)	1.02 ± 0.016
UniProt P06576 and related entries	1.02 ± 0.045
UniProt P13861 and related entries	0.9849 ± 0.0095
P0CAP2 and related entries (UniProt Q6EEV4+P0CAP2)	0.972 ± 0.048
UniProt O96011 and related entries	0.977 ± 0.1

Target	NP40-soluble protein abundance
SRP19 (UniProt P09132)	1.03 ± 0.14
UniProt O96028 and related entries	1.03 ± 0.042
UniProt O95985 and related entries	1.003 ± 0.0094
UniProt P15812 and related entries	1 ± 0.038
UniProt P09693	0.999 ± 0.076
GTF2F2 (UniProt P13984)	1.01 ± 0.025
UniProt O95793 and related entries	0.9955 ± 0.0074
UniProt P07992 and related entries	1.02 ± 0.092
UniProt O95983 and related entries	0.981 ± 0.048
RPLP2 (UniProt P05387)	0.984 ± 0.028
NUDT3 (UniProt O95989)	0.994 ± 0.04
GOT2 (UniProt P00505)	1 ± 0.035
ESD (UniProt P10768)	0.972 ± 0.024
UniProt P11274 and related entries	0.988 ± 0.026
UniProt P09497-2	0.9919 ± 0.009
CST3 (UniProt P01034)	0.9988 ± 0.0071
TOP1 (UniProt P11387)	1.01 ± 0.033
NCK1 (UniProt P16333)	0.975 ± 0.027
TTC4 (UniProt O95801)	0.997 ± 0.042
